# Several values for one entry are separate records, joined by “and”; a condition that tells them apart may be missing. Equal values may be shown once. Among all 300,000 compounds or so, about 5,400 (1.8%) were called active. Inconclusive means that the source gave no clear call. Such entries were picked first, then a sample of the others. The call rests on the fitted dose curve; tested in HEK293 cells. A potency beside an inconclusive call is a rough fit, not a confirmed value.
# Assay: qHTS for inhibitors of binding or entry into cells for Marburg Virus
# Details: Marburg virus pseudotyped entry inhibition, cell reporter; activity change, negative = inhibition: at 37.8 µM (top of the series) unless noted
# On the % scale 0 is the no-effect control and ±100 the full control effect; potency means the concentration at half of the fitted maximal effect.
SMILES,Potency,"activity change, negative = inhibition"
O=C(COc1cccc(C(F)(F)F)c1)NCC(c1ccco1)N1CCCCC1 (centres undefined),"inconclusive: 35.5 µM [inhibitor, single point]",
NC(=O)c1ccc[n+](CC(=O)NCc2ccc(Cl)cc2)c1,"inconclusive: 5.62 µM [inhibitor, single point]",
CCOC(=O)N1CCN(C(=O)c2ccc(CSc3ccc(Cl)cc3)cc2)CC1,"inconclusive: 35.5 µM [inhibitor, single point]",
Cc1ccc(/C=c2\sc3n(c2=O)CN(c2cccc(Br)c2)CN=3)o1,,inactive: 16.1%
CCCCC1S/C(=N/N=C/c2ccc(OC)cc2)N(Cc2ccc(OC)cc2)C1=O (centres undefined),"inconclusive: 29.1 µM [inhibitor, single point]",
CC(C)CCn1cnc2c(NCc3ccccc3)ncnc21,"inconclusive: 18.3 µM [activator, partial curve]",
COc1ccc(CCNC(=O)CCn2cccc2)cc1OC,,inactive: 2.39%
Cc1cccc(N2CCN(C(=O)CN3C(=O)COc4ccc(S(=O)(=O)N5CCCCCC5)cc43)CC2)c1C,,inactive: 0.626% [at 46.1 µM]
O=C(Nc1nc(-c2ccccc2)c(C(=O)c2ccccc2)s1)c1ccc(S(=O)(=O)N2CCCC2)cc1,"inconclusive: 35.5 µM [inhibitor, single point]",
COc1ccc(NCC(=O)N/N=C(\C)c2cc3ccccc3o2)cc1,"inconclusive: 11.2 µM [inhibitor, single point]",
Cn1ncc(N=Cc2ccccc2O)c1C(=O)Nc1ccccc1,"inconclusive: 35.5 µM [activator, single point]",
O=c1c2c3c(sc2nc2sc(C4CC4)nn12)CCCC3,,inactive: 1.21%
c1ccc(Cn2nnc3c(NCC4CCCO4)ncnc32)cc1 (centres undefined),,inactive: 23.1%
Fc1ccccc1COc1ccc(Br)cc1CNCc1cccnc1,"inconclusive: 17.8 µM [inhibitor, partial curve, poor fit]",
COc1cc(CNCCCN2CCOCC2)c(Br)cc1OCC(=O)Nc1ccccc1C,"inconclusive: 11.2 µM [inhibitor, partial curve, poor fit]",
COC(=O)/C(C#N)=C1/C=Cc2ccccc2N1C,,inactive: 20%
CCn1cc(Br)c(C(=O)Nc2ccc(F)c(Cl)c2)n1,,inactive: -12%

# Some of the entries above in another layout:
SMILES	Potency	activity change, negative = inhibition
Fc1ccccc1COc1ccc(Br)cc1CNCc1cccnc1	inconclusive: 17.8 µM [inhibitor, partial curve, poor fit]	
COc1cc(CNCCCN2CCOCC2)c(Br)cc1OCC(=O)Nc1ccccc1C	inconclusive: 11.2 µM [inhibitor, partial curve, poor fit]	

# Next part

SMILES,Potency,"activity change, negative = inhibition"
C=C1c2cccc(O)c2C(O)=C2C(=O)[C@@]3(O)C(O)=C(C(N)=O)C(=O)[C@@H](N(C)C)[C@@H]3[C@@H](O)[C@H]12,"inconclusive: 11.2 µM [activator, partial curve, poor fit]",
CCOC(=O)C1=C(C)NC(=O)NC1c1cn(-c2ccccc2)nc1-c1ccc(OCC)cc1 (centres undefined),"inconclusive: 22.4 µM [inhibitor, single point]",
CC12CCC(C(=O)Nc3cccc4ccccc34)(C1Br)C2(C)C (centres undefined),"inconclusive: 4.11 µM [inhibitor, full curve]",
Cc1cc(/C=c2/sc3nc4ccccc4n3c2=O)c(C)n1-c1ccccn1,"inconclusive: 3.26 µM [inhibitor, full curve, poor fit]",
CC(C)c1nc(CNC(=O)CCc2nnc(-c3ccsc3)o2)cs1,,inactive: 12.4% [at 46.1 µM]
CCc1cccc2c(C(=O)Cn3nnc(-c4ccc(OC)c(OC)c4)n3)c[nH]c12,"inconclusive: 17.8 µM [inhibitor, single point]",
O=C(Nc1cccnc1)c1ccc(S(=O)(=O)c2ccccc2)cc1,"inconclusive: 2.24 µM [inhibitor, full curve, poor fit]",
O=C(Nc1nnc(-c2ccco2)o1)c1ccc2ccccc2c1,active: 14.1 µM,
CC(C)OCCCNC(=S)N1CCC(C(=O)c2ccc(Cl)cc2)CC1,"inconclusive: 14.1 µM [inhibitor, single point]",
CCCC(c1nnnn1C1CCCCC1)N1CCN(C2CCCC2)CC1 (centres undefined),,inactive: -25% [at 46.1 µM]
CN(C)CCCn1c2c3ccccc3ccc2c2oc(=O)c3ccccc3c21,"inconclusive: 12.6 µM [inhibitor, single point]",
CCN(CC)CCN1C(=O)C2C(C(=O)Nc3ccc(C(C)C)cc3)C3C=CC2(O3)C1C(=O)NC1CCCCC1 (centres undefined),"inconclusive: 14.1 µM [inhibitor, single point]",
CC(C)c1ccc(N2C(=O)CC(Sc3ncn[nH]3)C2=O)cc1 (centres undefined),,inactive: -22.8%
CC(C)C[C@H](NC(=O)C1(c2ccccc2)CCN(C(=O)[C@H]2CSCN2C(=O)OC(C)(C)C)CC1)C(=O)O,"inactive and inconclusive: 35.5 µM [activator, single point]",
NC(=O)CC[C@H](NC(=O)c1ccc(F)cc1)C(=O)OCC(=O)NCc1ccc(F)cc1,,inactive: 7.35% [at 46.1 µM]
NC(=O)c1oc2ccccc2c1NC(=O)C1COc2ccccc2O1 (centres undefined),"inconclusive: 1.26 µM [inhibitor, single point]",
CC1Cc2ccccc2N1S(=O)(=O)c1cnc[nH]1 (centres undefined),"inconclusive: 20 µM [activator, partial curve, poor fit]",
